In publication doi:10.1101/625400:
For at least one entry, the source does not settle the construct or the ends of the probe. At least one result comes from cells or an extract, where the contact may be indirect.

Protein sequences, listed by entry. Tags and fused reporters are not part of them.
UniProt P25490, whole entry: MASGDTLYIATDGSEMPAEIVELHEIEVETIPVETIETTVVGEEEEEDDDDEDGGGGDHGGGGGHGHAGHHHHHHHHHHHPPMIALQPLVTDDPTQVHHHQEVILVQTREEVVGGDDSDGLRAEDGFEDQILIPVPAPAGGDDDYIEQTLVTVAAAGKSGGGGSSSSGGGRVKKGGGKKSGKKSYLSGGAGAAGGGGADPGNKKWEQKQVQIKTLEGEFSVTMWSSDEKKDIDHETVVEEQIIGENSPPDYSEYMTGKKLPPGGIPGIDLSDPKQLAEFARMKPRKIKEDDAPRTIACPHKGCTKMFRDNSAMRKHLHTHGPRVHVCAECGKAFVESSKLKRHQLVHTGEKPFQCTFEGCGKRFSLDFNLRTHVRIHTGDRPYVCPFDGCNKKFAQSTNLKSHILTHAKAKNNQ

How the values were obtained:
[1] = biological target: YY1 in UACC2331 melanoma nuclear extract (Homo sapiens (UACC2331 melanoma cells)) (UniProt P25490); experiment: EMSA supershift; conditions: anti-YY1 diminishes A-specific band, 10 mM Mg2+; protein in an extract
[2] = biological target: YY1 in UACC903 melanoma nuclear extract (Homo sapiens (UACC903 melanoma cells)) (UniProt P25490); experiment: pull-down, quantitative mass spectrometry; conditions: polydAdT and polydIdC competitor; protein in an extract

| Sequence | binding result [1] | binding result [2] |
| --- | --- | --- |
| GTCCGTCCCAACATGGCGGGT (double strand) [rs398206 A allele EMSA probe] | binds |  |
| GTCCGTCCCAACATGGCGGGT (double strand) [rs398206 A allele mass-spec probe] |  | binds |
